From the supplement of paper PMC4604168 (melanoma cell lines)
The other results are listed elsewhere or left out. Repeats are few or missing, and single values can be far off.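 Cells were imaged in 1,536-well plates, and nuclei stained with an antibody against cleaved PARP were counted against all DNA-stained nuclei to give the apoptosis fraction. Screening doses were chosen to leave most cells alive, and resting and induced cleaved-PARP levels differ strongly between cell lines.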

What was measured:
Experiment in all cases: cleaved PARP positive nuclei fraction relative to DMSO control; melanoma cells; higher = more apoptosis
Conditions in all cases: library dose: low library concentration; 72 h
MZ2-MEL = system: MZ2-MEL
MeWo = system: MeWo
RPMI7951 = system: RPMI7951
RVH-421 = system: RVH-421
SkMel28 = system: SkMel28
SkMel2 = system: SkMel2
SkMel30 = system: SkMel30
SkMel5 = system: SkMel5
UACC257 = system: UACC257
UACC62 = system: UACC62
WM115 = system: WM115
WM1716 = system: WM1716
WM1745 = system: WM1745
WM3526 = system: WM3526
WM3619 = system: WM3619
WM451Lu = system: WM451Lu

| Compound | cleaved PARP positive nuclei fraction (MZ2-MEL) | cleaved PARP positive nuclei fraction (MeWo) | cleaved PARP positive nuclei fraction (RPMI7951) | cleaved PARP positive nuclei fraction (RVH-421) | cleaved PARP positive nuclei fraction (SkMel28) | cleaved PARP positive nuclei fraction (SkMel2) | cleaved PARP positive nuclei fraction (SkMel30) | cleaved PARP positive nuclei fraction (SkMel5) | cleaved PARP positive nuclei fraction (UACC257) | cleaved PARP positive nuclei fraction (UACC62) | cleaved PARP positive nuclei fraction (WM115) | cleaved PARP positive nuclei fraction (WM1716) | cleaved PARP positive nuclei fraction (WM1745) | cleaved PARP positive nuclei fraction (WM3526) | cleaved PARP positive nuclei fraction (WM3619) | cleaved PARP positive nuclei fraction (WM451Lu) |
| --- | --- | --- | --- | --- | --- | --- | --- | --- | --- | --- | --- | --- | --- | --- | --- | --- |
| Nc1ncn([C@H]2C[C@H](O)[C@@H](CO)O2)c(=O)n1 [decitabine] + CO[C@@H]1[C@H](N(C)C(=O)c2ccccc2)C[C@H]2O[C@]1(C)n1c3ccccc3c3c4c(c5c6ccccc6n2c5c31)C(=O)NC4 [Midostaurin] (first compound 0.1 µM, partner dose 0.08 µM) | 65.5% | 169% | 117% | 130% | 301% | 142% | 51% | 668% | 100% | 86% | 142% | 184% | 108% | 75.3% | 112% | 67.3% |
| CS(=O)(=O)CCNCc1ccc(-c2ccc3ncnc(Nc4ccc(OCc5cccc(F)c5)c(Cl)c4)c3c2)o1 [lapatinib] + NCC(=O)Nc1ccc(-n2nc(C(F)(F)F)cc2-c2ccc3c(ccc4ccccc43)c2)cc1 [OSU03012] (first compound 0.8 µM, partner dose 1 µM) | 108% | 182% | 80.8% | 50.3% | 190% | 214% | 105% | 47.7% | 199% | 43.4% | 115% | 53.4% | 104% | 94.9% | 66.8% | 88.5% |
| Nc1nc(F)nc2c1ncn2[C@@H]1O[C@H](CO)[C@@H](O)[C@@H]1O [fludarabine] + Cc1ccc(NC(=O)c2cccc(N(C)C)c2)cc1NC(=O)c1ccc(O)cc1 [ZM336372] (first compound 0.2 µM, partner dose 2 µM) | 114% | 690% | 64.7% | 63.6% | 145% | 309% | 628% | 226% | 193% | 57% | 47.3% | 100% | 91.3% | 408% | 91.4% | 250% |
| O=C(O)[C@@H]1[O][Sb](=[O])([O][Sb]2(=[O])[O][C@H]([C@H](O)CO)[C@H](O)[C@H](C(=O)O)[O]2)[O][C@H]([C@H](O)CO)[C@@H]1O (some centres not stated) [stibogluconate] + COc1cc(Nc2ncc(F)c(Nc3ccc4c(n3)NC(=O)C(C)(C)O4)n2)cc(OC)c1OC [Tamatinib] (first compound 2 µM, partner dose 0.4 µM) | 187% | 280% | 75.5% | 94.4% | 62.1% | 134% | 186% | 146% | 215% | 126% | 51.3% | 62.8% | 161% | 66.9% | 98.6% | 102% |
| Nc1ccn([C@@H]2O[C@H](CO)[C@@H](O)C2(F)F)c(=O)n1 [gemcitabine] + COc1cc(Nc2ncc(F)c(Nc3ccc4c(n3)NC(=O)C(C)(C)O4)n2)cc(OC)c1OC [Tamatinib] (first compound 0.0004 µM, partner dose 0.4 µM) | 126% | 74.3% | 82.4% | 26.4% | 281% | 94.7% | 70.5% | 70.6% | 62.6% | 83.4% | 77.2% | 55.4% | 152% | 68.7% | 103% | 54.5% |
| Nc1ccn([C@@H]2O[C@H](CO)[C@@H](O)C2(F)F)c(=O)n1 [gemcitabine] + Oc1cc(-c2nc(-c3ccccc3)[nH]c2-c2ccncc2)ccc1Cl [L779450] (first compound 0.0004 µM, partner dose 0.2 µM) | 156% | 112% | 169% | 67.4% | 150% | 239% | 73.6% | 32.5% | 171% | 237% | 84.3% | 38% | 147% | 76.3% | 150% | 45.2% |
| O=C(O)c1ccc2c(c1)nc(Nc1cccc(Cl)c1)c1ccncc12 + Cn1cncc1[C@@](N)(c1ccc(Cl)cc1)c1ccc2c(c1)c(-c1cccc(Cl)c1)cc(=O)n2C [tipifarnib] (first compound 0.4 µM, partner dose 0.01 µM) | 139% | 217% | 138% | 48% | 31.5% | 182% | 69.3% | 286% | 93.9% | 118% | 198% | 177% | 107% | 143% | 153% | 139% |
